Reference: paper PMC4570275
These are yes or no findings as the source states them, for the method shown. In cells and extracts the contact can be indirect. Some entries that bind do so weakly or less than the wild type. For some of these results: Sequences can lack the tags named with a protein.

The chains behind the UniProt entries cited, without tags or fusion partners. Residues count along the entry.
UniProt P25799, residues 1-431: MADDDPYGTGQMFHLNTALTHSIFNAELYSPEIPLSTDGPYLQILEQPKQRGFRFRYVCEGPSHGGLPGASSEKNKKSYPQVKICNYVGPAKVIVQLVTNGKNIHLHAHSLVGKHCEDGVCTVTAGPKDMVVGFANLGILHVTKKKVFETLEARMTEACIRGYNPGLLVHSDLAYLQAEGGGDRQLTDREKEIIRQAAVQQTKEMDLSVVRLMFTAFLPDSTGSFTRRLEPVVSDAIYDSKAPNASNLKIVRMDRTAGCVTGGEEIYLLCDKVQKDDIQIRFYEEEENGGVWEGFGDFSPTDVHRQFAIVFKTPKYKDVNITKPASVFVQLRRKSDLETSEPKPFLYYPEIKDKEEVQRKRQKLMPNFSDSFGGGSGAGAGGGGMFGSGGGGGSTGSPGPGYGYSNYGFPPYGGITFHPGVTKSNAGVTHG
UniProt O09106: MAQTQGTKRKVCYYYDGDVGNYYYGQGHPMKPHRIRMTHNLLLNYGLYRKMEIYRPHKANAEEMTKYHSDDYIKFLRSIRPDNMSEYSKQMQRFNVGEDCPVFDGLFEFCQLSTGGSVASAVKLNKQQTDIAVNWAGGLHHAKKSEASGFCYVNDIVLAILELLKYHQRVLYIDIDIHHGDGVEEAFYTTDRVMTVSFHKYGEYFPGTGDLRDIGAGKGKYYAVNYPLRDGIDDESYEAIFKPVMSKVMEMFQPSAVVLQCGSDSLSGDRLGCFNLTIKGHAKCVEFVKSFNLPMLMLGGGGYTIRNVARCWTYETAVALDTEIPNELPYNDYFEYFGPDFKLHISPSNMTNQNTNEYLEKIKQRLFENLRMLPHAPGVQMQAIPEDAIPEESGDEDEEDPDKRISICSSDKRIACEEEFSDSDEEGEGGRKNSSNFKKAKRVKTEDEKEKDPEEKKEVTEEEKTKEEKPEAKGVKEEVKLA
UniProt P70288: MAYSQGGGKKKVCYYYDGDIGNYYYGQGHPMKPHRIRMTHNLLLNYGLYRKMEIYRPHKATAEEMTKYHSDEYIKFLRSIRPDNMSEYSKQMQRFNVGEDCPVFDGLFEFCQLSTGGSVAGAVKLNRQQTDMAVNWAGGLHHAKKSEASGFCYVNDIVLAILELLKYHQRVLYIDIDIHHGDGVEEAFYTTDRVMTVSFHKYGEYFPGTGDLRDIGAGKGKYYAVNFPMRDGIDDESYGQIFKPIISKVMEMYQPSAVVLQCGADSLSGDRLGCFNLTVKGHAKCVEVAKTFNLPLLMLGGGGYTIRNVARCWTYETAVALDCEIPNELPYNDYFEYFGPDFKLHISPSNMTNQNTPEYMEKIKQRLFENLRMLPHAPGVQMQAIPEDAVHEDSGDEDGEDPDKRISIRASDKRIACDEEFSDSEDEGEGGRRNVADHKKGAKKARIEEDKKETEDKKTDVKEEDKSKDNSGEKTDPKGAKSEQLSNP
UniProt Q8BKJ9: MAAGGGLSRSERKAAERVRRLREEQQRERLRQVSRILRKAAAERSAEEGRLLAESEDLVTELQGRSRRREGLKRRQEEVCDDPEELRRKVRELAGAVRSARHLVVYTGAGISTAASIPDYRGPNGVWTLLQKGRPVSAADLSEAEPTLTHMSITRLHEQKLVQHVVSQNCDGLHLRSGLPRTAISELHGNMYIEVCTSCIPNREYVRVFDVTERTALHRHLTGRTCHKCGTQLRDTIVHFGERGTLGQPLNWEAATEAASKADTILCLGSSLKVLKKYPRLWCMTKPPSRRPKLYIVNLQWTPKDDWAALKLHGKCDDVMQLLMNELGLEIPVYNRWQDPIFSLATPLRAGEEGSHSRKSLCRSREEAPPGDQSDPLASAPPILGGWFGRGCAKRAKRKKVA

Assays:
[1] = molecular target: NF-κB family member p50 (mouse (endogenous in CD4+ T cells of C57BL/6 mice)) (UniProt P25799); test: co-IP; lysate (IP lysis buffer) of mouse naive CD4+ T cells activated under iTreg-polarizing conditions (TGF-β plus IL-2) with GITR costimulation (DTA-1); anti-p50 (sc-1192) or control goat IgG at 4 °C overnight, Protein G agarose, four washes; immunoblot of the precipitates
[2] = molecular target: T1, Flag-tagged Foxp3 (mouse) (UniProt Q99JB6); test: co-IP; lysate of mouse CD4+ T cells transduced with FLAG-Foxp3 retrovirus, iTreg-culturing conditions with GITR costimulation, 48 h; anti-FLAG (F1804) or normal mouse IgG, Protein G agarose; immunoblot with anti-HDAC1, anti-HDAC2, anti-Sirt1 and anti-Sirt7
T1 sequence: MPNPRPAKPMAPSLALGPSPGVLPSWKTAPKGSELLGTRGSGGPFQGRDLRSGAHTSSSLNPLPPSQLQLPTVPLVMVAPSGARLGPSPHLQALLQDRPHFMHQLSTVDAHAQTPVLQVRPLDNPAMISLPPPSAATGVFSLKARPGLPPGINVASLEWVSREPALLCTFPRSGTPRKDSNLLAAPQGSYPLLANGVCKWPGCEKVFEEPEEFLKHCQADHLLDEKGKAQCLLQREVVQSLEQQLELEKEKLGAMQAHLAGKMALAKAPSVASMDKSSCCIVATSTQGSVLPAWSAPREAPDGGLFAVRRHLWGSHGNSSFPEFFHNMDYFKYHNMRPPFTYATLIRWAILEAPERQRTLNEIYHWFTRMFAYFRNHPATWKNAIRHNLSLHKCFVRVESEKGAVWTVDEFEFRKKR

| binding [1] | binding [2] | Substance |
| --- | --- | --- |
| binds | binds | HDAC1 (from UniProt O09106 1-482) (enzyme) |
| – | binds | HDAC2 (from UniProt P70288 1-488) (enzyme) |
| – | binds | Sirt7 (from UniProt Q8BKJ9 1-402) (enzyme) |
